PubChem BioAssay AID1224828 – NIAID – 2016

Assay: 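Find genes required for NF-kappaB p65 moving into the nucleus after LPS in mouse macrophages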 (primary screen)
System: mouse RAW264.7 G9 macrophage reporter cells (GFP-p65, Tnf promoter-mCherry)
Reagent: siRNA pool against mouse genes, 100 nM
Time to read-out: 2 days siRNA transfection, then 40 min LPS before fixation
Challenge: LPS (Salmonella minnesota R595) at 10 ng/ml
Measurement: 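Imaged p65 nuclear translocation ratio, normalised to the plate median, converted to robust z-scores and averaged across two replicates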
Direction: p65 translocation robust z-score: higher = more nuclear NF-kappaB p65 after LPS than the plate median; nuclear/cytoplasmic p65 ratio: higher = more nuclear NF-kappaB p65
Hit rule: 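Active if robust z is above 3.3 (negative regulators) or below -1.56, the Tlr4 control median (positive regulators); activity score 50 or more; control wells not called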
Calls: active = hit (p65 shift raised or lowered); inactive = no clear change
Shown is one part, drawn at random, of about 17,000 reagents. Over the whole deposit, 762 (4.5%) were called active. 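Active calls include both raised and lowered p65 entry, mostly lowered; wells with fewer than 50 cells lack a z-score.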 The raw values are shown without normalisation.

Bcl2l14 | p65 translocation robust z-score = 0.96; nuclear/cytoplasmic p65 ratio, rep 1 = 1.66; nuclear/cytoplasmic p65 ratio, rep 2 = 1.85; low cell count flag = enough cells to score; outcome = inactive
Ppwd1 | nuclear/cytoplasmic p65 ratio, rep 1 = 1.31; nuclear/cytoplasmic p65 ratio, rep 2 = 1.35; low cell count flag = fewer than 50 cells per well; well left out of scoring; outcome = inactive
Scn3a | p65 translocation robust z-score = -0.26; nuclear/cytoplasmic p65 ratio, rep 1 = 1.38; nuclear/cytoplasmic p65 ratio, rep 2 = 1.19; low cell count flag = enough cells to score; outcome = inactive
Smpx | nuclear/cytoplasmic p65 ratio, rep 1 = 1.68; nuclear/cytoplasmic p65 ratio, rep 2 = 1.17; low cell count flag = fewer than 50 cells per well; well left out of scoring; outcome = inactive
Vmn1r237 | p65 translocation robust z-score = -1.57; nuclear/cytoplasmic p65 ratio, rep 1 = 1.32; nuclear/cytoplasmic p65 ratio, rep 2 = 1.32; low cell count flag = enough cells to score; outcome = active
Rbms2 | p65 translocation robust z-score = 0.82; nuclear/cytoplasmic p65 ratio, rep 1 = 1.66; nuclear/cytoplasmic p65 ratio, rep 2 = 1.61; low cell count flag = enough cells to score; outcome = inactive
Meg3 | p65 translocation robust z-score = 0.21; nuclear/cytoplasmic p65 ratio, rep 1 = 1.76; nuclear/cytoplasmic p65 ratio, rep 2 = 1.49; low cell count flag = enough cells to score; outcome = inactive

Single entries from the list.
Ppwd1, outcome = inactive
Smpx, nuclear/cytoplasmic p65 ratio, rep 1: 1.68

The list goes on.
Wdr12 | p65 translocation robust z-score = 0.08; nuclear/cytoplasmic p65 ratio, rep 1 = 1.6; nuclear/cytoplasmic p65 ratio, rep 2 = 1.54; low cell count flag = enough cells to score; outcome = inactive
Ifnar1 | p65 translocation robust z-score = 1.28; nuclear/cytoplasmic p65 ratio, rep 1 = 1.58; nuclear/cytoplasmic p65 ratio, rep 2 = 1.56; low cell count flag = enough cells to score; outcome = inactive
Znhit2 | nuclear/cytoplasmic p65 ratio, rep 1 = 1.28; nuclear/cytoplasmic p65 ratio, rep 2 = 1.42; low cell count flag = fewer than 50 cells per well; well left out of scoring; outcome = inactive
Or5ac24 | p65 translocation robust z-score = 2.39; nuclear/cytoplasmic p65 ratio, rep 1 = 1.83; nuclear/cytoplasmic p65 ratio, rep 2 = 1.86; low cell count flag = enough cells to score; outcome = inactive
Pik3r4 | p65 translocation robust z-score = -0.23; nuclear/cytoplasmic p65 ratio, rep 1 = 1.81; nuclear/cytoplasmic p65 ratio, rep 2 = 1.35; low cell count flag = enough cells to score; outcome = inactive
Sp6 | nuclear/cytoplasmic p65 ratio, rep 1 = 1.23; nuclear/cytoplasmic p65 ratio, rep 2 = 1.02; low cell count flag = fewer than 50 cells per well; well left out of scoring; outcome = inactive
C1qtnf12 | p65 translocation robust z-score = -1.49; nuclear/cytoplasmic p65 ratio, rep 1 = 1.29; nuclear/cytoplasmic p65 ratio, rep 2 = 1.11; low cell count flag = enough cells to score; outcome = inactive
